Assay results: publication PMC10809502, “Application of a new MDCKII-MDR1 cell model to measure the extent of drug distribution in vitro at equilibrium for prediction of in vivo unbound brain-to-plasma drug distribution” (Fluids and Barriers of the CNS, 2024)

Protein sequences, listed by entry. Tags and fused reporters are not part of them. Residues count along the entry.
UniProt P02769, 25-607: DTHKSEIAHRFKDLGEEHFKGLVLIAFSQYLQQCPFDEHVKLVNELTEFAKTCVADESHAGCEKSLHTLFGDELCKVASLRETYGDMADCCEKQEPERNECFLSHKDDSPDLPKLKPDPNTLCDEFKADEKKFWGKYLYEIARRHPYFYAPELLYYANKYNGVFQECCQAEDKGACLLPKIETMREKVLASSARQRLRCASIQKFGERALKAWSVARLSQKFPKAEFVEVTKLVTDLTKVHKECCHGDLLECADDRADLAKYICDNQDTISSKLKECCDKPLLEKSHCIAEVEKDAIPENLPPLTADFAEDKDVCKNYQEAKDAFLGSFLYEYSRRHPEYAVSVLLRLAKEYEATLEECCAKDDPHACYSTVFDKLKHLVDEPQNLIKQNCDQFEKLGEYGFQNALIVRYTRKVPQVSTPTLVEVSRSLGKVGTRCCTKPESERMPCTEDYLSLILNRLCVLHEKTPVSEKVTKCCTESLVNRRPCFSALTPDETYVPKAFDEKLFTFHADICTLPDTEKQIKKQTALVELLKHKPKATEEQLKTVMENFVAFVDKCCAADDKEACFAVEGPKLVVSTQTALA

Experiments:
P-gp (human MDR1) = experiment: Equilibrium distribution study (in vitro Kp,brain / Kp,uu,brain) across MDCKII-MDR1 cells, BSA apical, brain homogenate basolateral, Uni-L and Bi-L; settings: dog, % printed
[1] = Fraction unbound in 20-fold diluted brain homogenate, equilibrium dialysis; settings: Göttingen, minipig, pH 7.4
[2] = Göttingen minipig; cited from earlier work
[3] = target: Bovine Serum Albumin (BSA) (Bos taurus, UniProt P02769); experiment: Fraction unbound in 35 μM BSA, equilibrium dialysis; settings: for fraction unbound at 5 h, 1 μM: bovine, 35 μM BSA

| recovery at 29 h, 1 μM (P-gp (human MDR1); pH 7.5, Recovery Bi-L, mass balance Eq. 7, Bi-L) | recovery at 29 h, 1 μM (P-gp (human MDR1); pH 7.5, Recovery Uni-L, mass balance Eq. 6, Uni-L) | fraction unbound at 5 h, 1 μM [1] | fraction unbound at 5 h, 1 μM [3] | Predicted fu (%) BSA 35 μM (D = 20) ([3]; calculated with Eq. 2 from fu measured in 100% matrices (ref 20), dilution factor 20) | Compound | Kp,uu,brain in vivo [2] |
| --- | --- | --- | --- | --- | --- | --- |
| 77% | 75% | 0.952 ± 0.021 | > 1 |  | CC(C)NCC(O)COc1ccc(CC(N)=O)cc1 (stereo not shown) [Atenolol, atenolol] | 0.10 |
|  |  |  | > 1 | 94.7% | CN(C)CCOC(c1ccccc1)c1ccccc1 [Diphenhydramine, diphenhydramine] |  |
